Hit rate of the full screen: of about 320,000 compounds, about 620 (0.19%) were called active. Inconclusive means that the source gave no clear call. Such entries were picked first, then a sample of the others. Cut-off read from the data, not from the text of the source: active = activation above about 80%; inconclusive = between about 30% and that limit; inactive = weaker than that.
Target: Transient receptor potential cation channel subfamily V member 1 (Homo sapiens) (UniProt Q8NER1)
Assay: HTS Assay for Compounds that Act as Agonists of the Vanilloid Receptor 1; note: 0% is about no effect
Settings: TRPV1-expressing cells, Fluo-8 calcium influx, agonist mode; at 8.33 µM, stronger effect = higher value
Procedure, shortened: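 TRPV1-expressing cells were cultured overnight at 35.5C and loaded with Fluo-8 calcium dye for 40 to 90 min at room temperature. After a 10 s baseline, compound was added and calcium influx was read kinetically for 3 min (ex 480/em 520 nm).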

By UniProt entry, the sequences of proteins in these tests, tags left out.
UniProt Q8NER1, whole entry, looked up: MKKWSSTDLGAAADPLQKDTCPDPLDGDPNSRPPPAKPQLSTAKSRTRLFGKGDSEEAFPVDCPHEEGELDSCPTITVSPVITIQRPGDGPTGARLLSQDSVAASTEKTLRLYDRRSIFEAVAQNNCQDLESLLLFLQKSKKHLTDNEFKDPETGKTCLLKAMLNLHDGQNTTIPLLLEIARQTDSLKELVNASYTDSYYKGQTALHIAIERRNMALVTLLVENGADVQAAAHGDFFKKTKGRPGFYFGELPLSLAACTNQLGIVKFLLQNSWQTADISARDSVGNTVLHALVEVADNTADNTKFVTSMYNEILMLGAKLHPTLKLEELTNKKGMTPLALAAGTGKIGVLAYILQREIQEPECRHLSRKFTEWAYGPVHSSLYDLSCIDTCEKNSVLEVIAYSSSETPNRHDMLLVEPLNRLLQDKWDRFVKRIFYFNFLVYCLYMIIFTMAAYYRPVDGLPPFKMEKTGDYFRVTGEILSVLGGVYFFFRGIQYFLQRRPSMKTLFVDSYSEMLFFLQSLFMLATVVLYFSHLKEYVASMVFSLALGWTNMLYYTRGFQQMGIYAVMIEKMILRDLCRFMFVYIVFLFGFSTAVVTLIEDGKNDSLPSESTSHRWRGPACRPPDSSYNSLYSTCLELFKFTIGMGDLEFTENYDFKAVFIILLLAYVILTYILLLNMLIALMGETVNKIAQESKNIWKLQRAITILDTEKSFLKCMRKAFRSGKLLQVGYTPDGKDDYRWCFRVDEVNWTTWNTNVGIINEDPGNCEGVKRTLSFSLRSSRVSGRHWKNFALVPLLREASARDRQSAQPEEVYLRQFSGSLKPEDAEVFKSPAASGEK

Compound	activation
COc1ccc(C(=O)Nc2oc(-c3ccccc3)c(-c3ccccc3)c2C#N)cc1	inconclusive: 75.6%
O=C(CNC(=O)c1ccc(Br)o1)NNC(=O)c1ccccc1F	inactive: -1.11%
COC(=O)c1ccc(C(=O)OC)c(NC(=S)N2CC(C)CC(C)C2)c1 (stereo not given)	inconclusive: 34.9%
O=C(Nc1cc(-c2ccccc2)[nH]n1)c1ccc(Cl)cc1	inconclusive: 57.1%
CCCCCCCC(=O)N/N=C/c1ccncc1	inconclusive: 64.6%
CCCNc1c(F)c(F)c2c(C)c3ccccc3nc2c1F	inactive: 11.2%
Cc1c(C)c2c(OCC(=O)Nc3ccc(CCO)cc3)cc3c(c2oc1=O)CCC(C)(C)O3	inconclusive: 66.4%
Cc1ccc(NC(=O)NC(=S)NC(=O)c2ccccc2)cc1	inactive: -5.96%
Cc1cccc(C)c1N1CCN(C(=O)N2CCCCC2)CC1	inconclusive: 53.6%
Cc1sc(NC(=O)c2ccc(Br)s2)c(C(N)=O)c1C	inconclusive: 35%
COc1cc(OC)cc(C(=O)NC(=S)N2CCCCC2c2cccnc2)c1 (stereo not given)	inactive: -4.15%
O=C(Nc1ccc2c(c1)oc1ccccc12)c1ccc2c(c1)OCO2	inconclusive: 73.6%
O=C(Nc1ccccn1)c1ccc(-c2ccccc2)cc1	inconclusive: 61.9%
Cc1ccc(NC(=O)NCCN2CCCCC2)cc1	inactive: 2.44%
CCCn1nnnc1NCc1ccccc1OCc1ccc(F)cc1	inconclusive: 42.7%
Cc1ccc(O)c(C(=O)/C=C/c2ccc3c(c2)OCCCO3)c1	inactive: 2.63%
NC(=O)c1c(N)sc2c1CCCC2	inactive: 5.54%
CCOc1ccc2c(c1)C(=NNC(=O)c1ccncc1)c1cc(OCC)ccc1-2	inconclusive: 40.7%
CC(=O)Oc1ccc(/C=C2/Oc3ccccc3C2=O)cc1	inactive: 19.9%
O=C(NCCC1=CCCCC1)C1CCCN(S(=O)(=O)c2cccnc2)C1 (stereo not given)	inconclusive: 40.2%

Look-ups from the results shown:
CC(=O)Oc1ccc(/C=C2/Oc3ccccc3C2=O)cc1 | activation: inactive: 19.9%
Cc1ccc(NC(=O)NC(=S)NC(=O)c2ccccc2)cc1 | activation: inactive: -5.96%
CCCNc1c(F)c(F)c2c(C)c3ccccc3nc2c1F | activation: inactive: 11.2%

Continued:

Compound	activation
COc1ccc(C(=O)c2c(-c3ccc(OC)cc3)oc3ccccc23)cc1	inactive: 24.4%
O=C(CSc1nc2ccccc2[nH]1)Nc1ccccc1F	inconclusive: 38.3%
Cc1ccc(/C=C/C(=O)Nc2ccncc2)o1	inconclusive: 42.6%
COc1ccc(CNC(=O)c2csc3c2CCCC3)cc1	inconclusive: 35.7%
CN(Cc1ccccc1)S(=O)(=O)c1cccc2cccnc12	inactive: -6.95%
c1ccc(Cn2c(-c3cncs3)nc3ccccc32)cc1	inconclusive: 31.8%
CC(C)[C@H](NC(=O)OC(C)(C)C)c1nnc(SCc2cccc(F)c2)o1	inconclusive: 56%
CC(=O)c1cccc(NC(=O)CCCSc2ccccc2)c1	inconclusive: 62%
Cc1cc(C)c2nc(SCC(=O)N3CC(=O)Nc4ccccc43)c(C#N)cc2c1	inactive: -0.355%
CC(=O)c1cccc(NC(=O)NC2CCCCC2)c1	inconclusive: 58.2%
CCOc1ccc(NC(=O)CC2C(=O)N(CC)C(=S)N2CCNC(C)=O)cc1 (stereo not given)	inactive: 1.42%
C=CCc1c(C)[nH]c(=S)c(C#N)c1C	inactive: 0.354%
Cc1c(C(=O)Nc2ccccc2)sc2nc(-c3ccccc3)cn12	inconclusive: 44.4%
COCc1cc(=O)n2[nH]c(-c3ccccc3)cc2n1	inactive: 0.73%
Cc1ccc(C2C3=C(CC(C)(C)CC3=O)N=C3c4ccccc4C(=O)C32)cc1 (stereo not given)	inconclusive: 35.8%
Cc1ccc(S(=O)(=O)Cc2ccc(C(=O)NCCc3ccccc3)o2)cc1	active: 81.4%
CCOC(=O)c1cccc(NC(=O)N2CCOCC2)c1	inconclusive: 40.6%
Cc1ccc(Cl)cc1N1CCN(C(=O)C(=O)N2CCCCC2)CC1	inconclusive: 39.3%
Cc1cc(C)c(C)c(N=Nc2nc3ccccc3n2C)c1C	inconclusive: 32.4%
S=C(Nc1nc2c(s1)CCCC2)NC1CC1	inconclusive: 30.3%

Compound	activation
Cc1ccc(C(=O)NCCSC(C)(C)C)cc1	inconclusive: 36.1%
Cc1ccnc(NC(=O)Nc2ccc3c(c2)N(C)C(=O)CS3)c1	inconclusive: 32.7%
CC(C)CN(CC(C)C)C(=O)c1cccc(S(=O)(=O)N2CCc3ccccc32)c1	inconclusive: 42.1%
CC(C)c1ccc(/C=C(/C#N)c2nnc(NC(=O)c3ccccc3)s2)cc1	inconclusive: 35.7%
CCOc1ccc(S(=O)(=O)N2CCCCC2)cc1NC(=O)C1CCC1	inconclusive: 52%
N#CCCn1nc(-c2ccccc2)cc1Nc1ccccc1NC(=O)C(F)(F)F	inactive: 14.9%
Cc1c(C(=O)NCCC2=CCCCC2)cccc1[N+](=O)[O-]	inconclusive: 50.8%
CC(C)c1nnc(N2C(=O)C(O)=C(C(=O)c3cccs3)C2c2ccccc2)s1 (stereo not given)	active: 103%
CC1CCCC(C)N1C(=O)CSc1nnc(-c2cccs2)o1 (stereo not given)	inconclusive: 38.3%
CCc1cccc(NC(=O)C2CCN(S(=O)(=O)c3c(C)noc3C)CC2)c1	inconclusive: 59.9%
CC1CCCCN1S(=O)(=O)c1ccc(NC(=O)c2cccs2)cc1 (stereo not given)	inconclusive: 68.3%
CCC(C)(C)n1nnnc1C(c1cc2cc(C)cc(C)c2[nH]c1=O)N1CCN(Cc2ccc3c(c2)OCO3)CC1 (stereo not given)	inactive: -1.26%
Cc1ccc(CONC(=O)c2cccc(C)c2)cc1	inconclusive: 36.7%
O=C(Nc1cccc(N2CCCC2)c1)c1cccs1	inconclusive: 41.2%
Nc1ccccc1N=Cc1ccc(-c2cccc(Cl)c2)o1	active: 117%
COc1ccc(S(=O)(=O)N2CCOCC2)cc1NC(=O)CN1CCC(Cc2ccccc2)CC1	inconclusive: 52.2%
CCCCCCCCC(=O)NCCOc1ccc(OC)cc1	inconclusive: 30%
CCCC1(c2ccccc2)NC(=O)N(CC(=O)Nc2cc(OC)cc(OC)c2)C1=O (stereo not given)	inactive: -0.668%
COc1ccc(CNC(=O)c2c(-c3cc(Cl)c(OC)c(Cl)c3)noc2C)cc1	inconclusive: 32.3%
CCC(=O)Nc1ccc(-c2cc(-c3ccccc3)nc(-c3ccc(NC(=O)CC)cc3)n2)cc1	inactive: -1.73%

— PubChem BioAssay AID540275 (National Center for Advancing Translational Sciences (NCATS), 2011)
